Results taken from US20240279324A1.
These are yes or no findings as the source states them, for the method shown. Some binding calls cover weakened binding; strength is not graded here.

Amino acid sequences for entries named in this document (tags omitted). Residues count along the entry.
UniProt O15123, residues 19-496: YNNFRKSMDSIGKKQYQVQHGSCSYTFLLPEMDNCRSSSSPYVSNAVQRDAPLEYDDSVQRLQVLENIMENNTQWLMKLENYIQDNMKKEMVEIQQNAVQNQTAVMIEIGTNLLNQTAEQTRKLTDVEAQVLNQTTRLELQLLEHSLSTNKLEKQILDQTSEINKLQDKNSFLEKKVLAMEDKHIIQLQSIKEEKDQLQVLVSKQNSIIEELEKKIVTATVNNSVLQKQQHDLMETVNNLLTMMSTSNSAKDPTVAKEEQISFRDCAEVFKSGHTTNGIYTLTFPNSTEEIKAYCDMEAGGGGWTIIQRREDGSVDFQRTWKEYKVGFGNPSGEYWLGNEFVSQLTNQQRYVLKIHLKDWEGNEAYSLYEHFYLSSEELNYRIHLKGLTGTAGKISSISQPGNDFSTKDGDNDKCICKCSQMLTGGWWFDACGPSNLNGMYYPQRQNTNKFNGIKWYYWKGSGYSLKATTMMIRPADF

Molecular target: recombinant human Ang2 (human) (UniProt O15123)
Assay: Tie2-Ang2 blocking ELISA, Ang2 coated, Tie2 as competitor (FIG. 40 panel B)

B1: bispecific molecule Bi-ZT0 (Fc fusion)
chain: SDTGRPFVEMYSEIPEIIHMTEGRELVIPCRVTSPNITVTLKKFPLDTLIPDGKRIIWDSRKGFIISNATYKEIGLLTCEATVNGHLYKTNYLTHRQTNTIIDVVLSPSHGIELSVGEKLVLNCTARTELNVGIDFNWEYPSSKHQHKKLVNRDLKTQSGSEMKKFLSTLTIDGVTRSDQGLYTCAASSGLMTKKNSTFVRVHEKESKYGPPCPPCPAPEFLGGPSVFLFPPKPKDTLMISRTPEVTCVVVDVSQEDPEVQFNWYVDGVEVHNAKTKPREEQFNSTYRVVSVLTVLHQDWLNGKEYKCKVSNKGLPSSIEKTISKAKGQPREPQVYTLPPSQEEMGGAQQEECEWDPWTCEHMGSGSATGGSGSTASSGSGSATHQEECEWDPWTCEHMGGTKNQVSLTCLVKGFYPSDIAVEWESNGQPENNYKTTPPVLDSDGSFFLYSRLTVDKSRWQEGNVFSCSVMHEALHNHYTQKSLSLSLGK
  binding: binds
